In paper PMC8891368:
Results are given in words; binding and its absence hold for the method and conditions named. In cells and extracts the contact can be indirect. Here binding means that the protein was enriched with, or labelled near, the bait; the list need not be complete.

Chains of the proteins cited; added tags and fusions are not shown.
UniProt Q16665: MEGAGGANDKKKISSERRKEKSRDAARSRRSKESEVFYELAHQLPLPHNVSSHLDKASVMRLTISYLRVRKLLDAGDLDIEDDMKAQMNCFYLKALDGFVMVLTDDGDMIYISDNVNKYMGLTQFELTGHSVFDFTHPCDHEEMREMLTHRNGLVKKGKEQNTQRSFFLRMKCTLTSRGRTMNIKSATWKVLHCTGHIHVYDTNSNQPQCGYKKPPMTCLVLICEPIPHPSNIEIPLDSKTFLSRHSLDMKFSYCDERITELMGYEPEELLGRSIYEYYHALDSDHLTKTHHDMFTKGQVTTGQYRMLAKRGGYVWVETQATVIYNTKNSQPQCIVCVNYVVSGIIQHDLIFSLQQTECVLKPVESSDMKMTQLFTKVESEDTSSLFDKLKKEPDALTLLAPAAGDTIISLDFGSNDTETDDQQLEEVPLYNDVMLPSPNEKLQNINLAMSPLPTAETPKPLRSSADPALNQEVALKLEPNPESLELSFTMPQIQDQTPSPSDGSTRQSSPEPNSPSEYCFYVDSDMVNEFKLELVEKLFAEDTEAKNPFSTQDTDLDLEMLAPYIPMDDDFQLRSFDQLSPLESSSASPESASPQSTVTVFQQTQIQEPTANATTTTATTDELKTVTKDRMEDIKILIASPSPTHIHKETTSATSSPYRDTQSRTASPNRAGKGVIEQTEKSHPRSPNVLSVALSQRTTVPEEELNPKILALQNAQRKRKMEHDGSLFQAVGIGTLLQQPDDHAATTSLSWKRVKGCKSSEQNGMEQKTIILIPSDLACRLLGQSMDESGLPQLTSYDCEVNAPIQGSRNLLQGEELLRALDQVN

Molecular target: hypoxia-inducible factor 1α (HIF-1α) (human (endogenous in MCF-7 and MDA-MB-231)) (UniProt Q16665)
Experiment: affinity purification with mass spectrometry; MCF-7 cellular extracts precipitated with IgG or anti-HIF-1α antibody, SDS-PAGE, silver staining, bands analysed by mass spectrometry

B1: aldolase A (ALDOA) (protein, UniProt P04075 1-364)
chain: MPYQYPALTPEQKKELSDIAHRIVAPGKGILAADESTGSIAKRLQSIGTENTEENRRFYRQLLLTADDRVNPCIGGVILFHETLYQKADDGRPFPQVIKSKGGVVGIKVDKGVVPLAGTNGETTTQGLDGLSERCAQYKKDGADFAKWRCVLKIGEHTPSALAIMENANVLARYASICQQNGIVPIVEPEILPDGDHDLKRCQYVTEKVLAAVYKALSDHHIYLEGTLLKPNMVTPGHACTQKFSHEEIAMATVTALRRTVPPAVTGITFLSGGQSEEEASINLNAINKCPLLKPWALTFSYGRALQASALKAWGGKKENLKAAQEEYVKRALANSLACQGKYTPSGQAGAAASESLFVSNHAY
**Q.** For B1, which binding is on record?
**A.** binds
